{"source": "PubChem BioAssay AID504834", "about": "(National Center for Advancing Translational Sciences (NCATS), 2011)", "note": "“And” between values parts separate entries of the source, which are not always exact repeats. Equal entries are not always repeated. About 22,000 (6.9%) of roughly 320,000 compounds were called active. Inconclusive means that the source gave no clear call. Such entries were picked first, then a sample of the others. Calls come from the whole dose curve; as a rule, active = well fitted inhibition curve with a large enough effect; inconclusive = small, poorly fitted or top-dose-only effect, or another doubt; inactive = no such curve, though single readings can be large or run the other way. A potency beside an inconclusive call is a rough fit, not a confirmed value. Where a structure was tested more than once in an assay, its records may differ in their call. % is set by controls: 0 for no effect and ±100 for the full control effect; potency is the fitted concentration of half-maximal effect."}
{"test": "Primary qHTS for delayed death inhibitors of the malarial parasite plastid, 96 hour incubation", "settings": "P. falciparum luciferase reporter growth; series mostly up to 28.7 µM; activity change, negative = inhibition: at the top concentration", "how_it_was_run": "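Compounds incubated with erythrocytes infected by luciferase-expressing P. falciparum (2% hematocrit, 0.05% parasitemia final) for 96 hours, 37 C in 5% CO2. Growth inhibition scored as decreased luciferase luminescence.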"}
{"smiles": "COc1ccccc1-c1nnc(SCC(=O)N2CCCC2)o1", "activity change, negative = inhibition": "inactive: 268%"}
{"smiles": "O=C(O)c1cc([N+](=O)[O-])c(Nc2cccc3ccccc23)c([N+](=O)[O-])c1", "Potency": "active: 3.29 µM"}
{"smiles": "N#Cc1ccccc1NC(=O)CNc1ccc(Cl)c(C(F)(F)F)c1", "Potency": "inconclusive: 7.38 µM [inhibitor, partial curve]"}
{"smiles": "CN(C)S(=O)(=O)c1cccc(COc2cccnc2[N+](=O)[O-])c1", "activity change, negative = inhibition": "inactive: 29%"}
{"smiles": "CCn1c(SCC(=O)N2CCCCC2C)nc2ccsc2c1=O", "note": "(stereo not drawn)", "activity change, negative = inhibition": "inactive: -23.1%"}
{"smiles": "O=C(N/N=C/c1ccccc1)c1ccc(NC(=O)c2ccc(F)cc2)cc1", "activity change, negative = inhibition": "inactive: -13.7%"}
{"smiles": "Cc1nc2c(C)cccc2c2c1CCN2c1ccccc1F", "Potency": "inconclusive: 10.4 µM [inhibitor, single point]"}
{"smiles": "NC(=O)c1sc2nc(N3CCCCC3)c3c(c2c1N)CCCC3", "activity change, negative = inhibition": "inactive: -4.33%"}
{"smiles": "CCOC(=O)[C@H]1[C@H]2COc3ccccc3[C@@H]2N2C(=O)c3cc(Cl)ccc3NC(=O)[C@@]12C", "Potency": "active: 11.7 µM"}
{"smiles": "C(=C\\c1nc(-c2ccncc2)no1)/c1ccccc1", "activity change, negative = inhibition": "inactive: 18.8%"}
{"smiles": "CCC(C(=O)N/N=C/c1cccnc1)c1ccccc1", "note": "(stereo not drawn)", "Potency": "inconclusive: 18.5 µM [inhibitor, single point]"}
{"smiles": "CCCNC(=O)NC(=O)c1cnccc1C(F)(F)F", "activity change, negative = inhibition": "inactive: 11.3%"}
{"smiles": "O=C(NC(=S)N1CCCC1)c1ccccc1", "Potency": "inconclusive: 10.4 µM [inhibitor, single point]"}
{"smiles": "CCOc1cc(N2CCOCC2)c(OCC)cc1NC(=O)CN1C(=O)C2C3C=CC(C3)C2C1=O", "note": "(stereo not drawn)", "Potency": "inconclusive: 0.738 µM [inhibitor, full curve]"}
{"smiles": "COc1ccc([C@@H]2[C@@H]3C(=O)N(C(C)(C)C)C(=O)[C@@H]3[C@]3(Cc4ccc(Cl)cc4)C(=O)N(c4cccc(Br)c4)C(=O)N23)cc1", "Potency": "inconclusive: 5.86 µM [inhibitor, partial curve, poor fit]"}
{"smiles": "CCOC(=O)C1(Cc2ccccc2)CCN(Cc2cnn(CC)c2)CC1", "Potency": "inconclusive: 13.1 µM [inhibitor, single point]"}
{"smiles": "COc1ccccc1N1CCN(C(=O)c2ccc3c(c2)NC(=O)C(CSCc2ccccc2C)N3)CC1", "note": "(stereo not drawn)", "activity change, negative = inhibition": "inactive: -13.4%"}
{"smiles": "O=C(N1CCOCC1)N1CCN(S(=O)(=O)c2ccc(F)cc2)CC1", "activity change, negative = inhibition": "inactive: 99.3%"}
{"smiles": "COc1ccc([N+](=O)[O-])cc1N(CC(=O)N1CCOCC1)S(C)(=O)=O", "Potency": "inconclusive: 11.7 µM [inhibitor, single point]"}
{"smiles": "CCc1ccccc1NS(=O)(=O)Cc1ccccc1", "Potency": "inconclusive: 18.5 µM [inhibitor, single point]"}
{"smiles": "COc1ccc(-c2cc(=O)oc3cc(OC(C)C(=O)NC4CC4)ccc23)cc1", "note": "(stereo not drawn)", "Potency": "active: 2.94 µM"}
{"smiles": "CCCNC(=O)C(Cc1ccc(I)cc1)NC(=O)c1ccc(C#N)cc1", "note": "(stereo not drawn)", "Potency": "inconclusive: 2.33 µM [inhibitor, partial curve, poor fit]"}
{"smiles": "CCC(C)(C)NC(=O)c1sccc1Oc1ccc(F)cc1[N+](=O)[O-]", "Potency": "inconclusive: 11.7 µM [inhibitor, partial curve]"}
{"smiles": "CCOCCCNC(=O)c1c[nH]c2c(CC)cccc2c1=O", "Potency": "inconclusive: 11.7 µM [inhibitor, single point]"}
{"smiles": "NNC(=O)CSc1nc(-c2ccccc2)nc2c1CCCC2", "Potency": "inconclusive: 20.8 µM [inhibitor, partial curve, poor fit]"}
{"smiles": "CCc1cc2c3c(c(=O)oc2cc1OCC(=O)OC)CCCC3", "Potency": "inconclusive: 4.15 µM [inhibitor, single point]"}
{"smiles": "O=C(CSc1nnc(NC(=O)c2cccc(F)c2)s1)NCc1ccco1", "activity change, negative = inhibition": "inactive: 43.7%"}
{"smiles": "CCCCN(C)C(=O)c1cn(C)c2ccc(S(=O)(=O)N3CCC(C)CC3)cc2c1=O", "Potency": "inconclusive: 18.5 µM [inhibitor, single point]"}
{"smiles": "CN(C)C(=O)Oc1cccc([N+](C)(C)C)c1", "Potency": "inactive and active: 4.15 µM"}
{"smiles": "COc1ccc(OC)c(NC(=O)CSc2ccc(-c3cccnc3)nn2)c1", "Potency": "inconclusive: 11.7 µM [inhibitor, single point]"}
{"smiles": "Cc1ccc(SCn2nnc3ccccc3c2=O)c(C)c1", "activity change, negative = inhibition": "inactive: 189%"}
{"smiles": "Brc1ccc(-c2nnc(-c3ccccc3Br)o2)cc1", "activity change, negative = inhibition": "inactive: 160%"}
{"smiles": "CCCCc1ccc(NC(=O)Nc2cccnc2)cc1", "activity change, negative = inhibition": "inactive: 34.5%"}
{"smiles": "Cc1cc(C(=O)NCc2ccco2)c2cc(F)ccc2n1", "activity change, negative = inhibition": "inactive: 12.6%"}
{"smiles": "NC1=NC[C@H](Cc2ccc(O)cc2)N1CCc1cccc2ccccc12", "Potency": "active: 1.04 µM"}
{"smiles": "COc1cc2c(cc1OC)C(c1cccs1)N(C(=O)c1ccncc1)CC2", "note": "(stereo not drawn)", "Potency": "inconclusive: 6.57 µM [inhibitor, partial curve, poor fit]"}
{"smiles": "O=C(Nc1ccc(NC(=O)c2cccs2)c(Cl)c1)c1cccs1", "Potency": "inconclusive: 5.86 µM [inhibitor, partial curve, poor fit]"}
{"smiles": "COC(=O)C(C)(C)ONC(=O)Nc1ccc([N+](=O)[O-])cc1", "Potency": "inconclusive: 18.5 µM [inhibitor, single point]"}
{"smiles": "CC(NC(=O)COC(=O)C1CCN(c2ccc(C(F)(F)F)cn2)CC1)c1ccc(Br)cc1", "note": "(stereo not drawn)", "activity change, negative = inhibition": "inactive: -9.19%"}
{"smiles": "O=C(COC(=O)c1ccccc1Cc1ccccc1)Nc1ccc(SC(F)F)cc1", "Potency": "inconclusive: 16.5 µM [inhibitor, single point]"}
{"smiles": "Cc1ccc(S(=O)(=O)NCc2ccc(C(=O)NCc3cccnc3)cc2)cc1", "Potency": "inconclusive: 18.5 µM [inhibitor, single point]"}
{"smiles": "Cc1cccc(NC(=S)N/N=C2\\CC(C)(C)Oc3ccc(O)cc32)c1", "Potency": "inconclusive: 6.57 µM [inhibitor, partial curve, poor fit]"}
{"smiles": "CCCCn1c(=O)c2c(c3ccccc31)OCC(=O)N2", "activity change, negative = inhibition": "inactive: -15%"}
{"smiles": "CN(CC1COCCO1)C(=O)c1cc(COc2c(F)cccc2F)on1", "note": "(stereo not drawn)", "activity change, negative = inhibition": "inactive: -6.66%"}
{"smiles": "COc1ccccc1N(CC(=O)NCc1ccccc1C)S(=O)(=O)c1ccc(C)cc1", "activity change, negative = inhibition": "inactive: -0.403%"}
{"smiles": "O=C(CN1CCN(c2ccc(O)cc2)CC1)Nc1ccc2c(c1)OCCCO2", "Potency": "inconclusive: 18.5 µM [inhibitor, single point]"}
{"smiles": "Cc1ccc(CC(CC(=O)Nc2cccc(C(F)(F)F)c2)C(=O)O)cc1", "note": "(stereo not drawn)", "Potency": "active: 14.7 µM"}
{"smiles": "CCCCCCn1c(NCC)nc2c1c(=O)n(C)c(=O)n2C", "Potency": "inconclusive: 11.7 µM [inhibitor, single point]"}
{"smiles": "C=CCn1c(O)c(C(C)=NCc2cc(OC)cc(OC)c2)c(=O)[nH]c1=O", "activity change, negative = inhibition": "inactive: 15.3%"}
{"smiles": "Nc1c(-c2ccccc2)c(CN2CCOCC2)nn1-c1ccc(F)cc1", "Potency": "inconclusive: 9.28 µM [inhibitor, single point]"}
{"smiles": "Cc1ccc(C)c(Nc2nn3c(=O)c4ccc(C(=O)NCc5cccnc5)cc4nc3s2)c1", "activity change, negative = inhibition": "inactive: -3.75%"}
{"smiles": "CCOc1ccc(N2CC(C(=O)NCc3ccco3)CC2=O)cc1", "note": "(stereo not drawn)", "Potency": "inconclusive: 18.5 µM [inhibitor, single point]"}
{"smiles": "COc1cc2ccccc2cc1C(=O)Nc1ccccc1N1CCCC1", "Potency": "inconclusive: 16.5 µM [inhibitor, partial curve, poor fit]"}
{"smiles": "CC(NC(=O)CSc1ncccn1)c1ccccc1", "note": "(stereo not drawn)", "Potency": "inconclusive: 18.5 µM [inhibitor, single point]"}
{"smiles": "CCc1c(C)c2ccc(O)c(CN3CCCC3)c2oc1=O", "Potency": "active: 11.7 µM"}
{"smiles": "CC1(C)CC(CC(=O)O)(c2ccc(F)cc2)CCO1", "note": "(stereo not drawn)", "Potency": "inconclusive: 6.57 µM [inhibitor, partial curve, poor fit]"}
{"smiles": "CCC(C)NC(=O)C1CCC(CNS(=O)(=O)c2ccc3c(c2)N(C(C)=O)CCO3)CC1", "note": "(stereo not drawn)", "activity change, negative = inhibition": "inactive: -8.04%"}
{"smiles": "COc1ccc(CCNC(=O)C(=O)NCC2OCCN2S(=O)(=O)c2cc(F)ccc2F)cc1OC", "note": "(stereo not drawn)", "activity change, negative = inhibition": "inactive: 2.99%"}
{"smiles": "CC(=O)Nc1ccc(Oc2cncc(Cl)c2)nc1", "activity change, negative = inhibition": "inactive: 26.4%"}
{"smiles": "COc1ccc2c(c1)OC[C@H]1[C@H]2N2C(=O)CN(Cc3ccc(F)cc3)C(=O)[C@@]2(C)[C@H]1c1ccccc1", "Potency": "inconclusive: 1.04 µM [inhibitor, full curve, poor fit]"}
{"smiles": "O=C(Nc1ccc(-c2nc3cc(Cl)ccc3c(=O)o2)cc1)c1ccco1", "Potency": "inconclusive: 18.5 µM [inhibitor, single point]"}
{"smiles": "COc1ccc2nc(NC(=O)CCNC(=O)c3ccco3)sc2c1", "activity change, negative = inhibition": "inactive: 69.6%"}
{"smiles": "Cc1cc2oc(=O)cc(CN(C)Cc3ccccc3)c2cc1C(C)C", "Potency": "inconclusive: 10.4 µM [inhibitor, single point]"}
{"smiles": "COc1ccc(CN(C)C(=O)[C@H](Cc2ccccc2)NC(=O)c2ccco2)c(OC)c1", "Potency": "inconclusive: 18.5 µM [inhibitor, single point]"}
{"smiles": "CN(C)C1=NCC(CSC(=N)N)S1", "note": "(stereo not drawn)", "Potency": "inconclusive: 18.5 µM [inhibitor, single point]"}
{"smiles": "N#Cc1cccc(C(=O)N(CCc2ccccc2)Cc2cccs2)c1", "Potency": "inconclusive: 7.38 µM [inhibitor, partial curve, poor fit]"}
{"smiles": "COc1cc(NC(=S)N2CCCC(CO)C2)cc(OC)c1", "note": "(stereo not drawn)", "activity change, negative = inhibition": "inactive: 2.42%"}
{"smiles": "Nc1c(C(=O)NCc2ccccc2)c2nc3ccccc3nc2n1-c1ccc2c(c1)OCO2", "Potency": "inconclusive: 9.28 µM [inhibitor, single point]"}
{"smiles": "Cc1ccc(S(=O)(=O)Nc2cccnc2Oc2ccc(Cl)cc2)cc1", "Potency": "inconclusive: 18.5 µM [inhibitor, single point]"}
{"smiles": "CC(=O)c1cc2c(cc1N)OCO2", "Potency": "inconclusive: 0.185 µM [inhibitor, partial curve, poor fit]"}
{"smiles": "CCc1nnc(NC(=O)CCc2c[nH]c3ccccc23)s1", "Potency": "inconclusive: 2.62 µM [inhibitor, single point]"}
{"smiles": "CCn1c(CCc2ccccc2)n[nH]c1=S", "Potency": "active: 10.4 µM"}
{"smiles": "CCCCCCCNC(=O)C1(CC2CC(c3cccc(Br)c3)=NO2)CCN(C(=O)C2(C)CC2)CC1", "note": "(stereo not drawn)", "Potency": "inconclusive: 18.5 µM [inhibitor, single point]"}
